Measured values: patent US9169203B2, “Sulfoxide-based surfactants” (Novus International Inc., priority 2012, dated 2015)

Assay: Draves Wetting Test (ASTM D2281-68)
Type: physicochemical

Structure (SMILES) | Time for skein to sink (Concentration 0.05%) [h] | Time for skein to sink (Concentration 0.10%) [h] | Time for skein to sink (Concentration 0.25%) [h] | Time for skein to sink (Concentration 0.50%) [h]
CCCCCCCCOC(=O)C(O)CC[S+](C)[O-] (centres unmarked) [Example R8SO, octyl 2-hydroxy-4-(methylsulfinyl)butanoate] | >0.5 | >0.5 | 0.0014 | <0.0014
CCCCCCOC(=O)C(O)CC[S+](C)[O-] (centres unmarked) [Example R6SO, hexyl 2-hydroxy-4-(methylsulfinyl)butanoate] | >24 | >24 | >24 | ~6
